Here are results for eleven molecules from patent US20040073013A1 (Chugai, published 2004).

Protein sequences, listed by entry. Tags and fused reporters are not part of them. Residues count along the entry.
UniProt Q08722, residues 19-323: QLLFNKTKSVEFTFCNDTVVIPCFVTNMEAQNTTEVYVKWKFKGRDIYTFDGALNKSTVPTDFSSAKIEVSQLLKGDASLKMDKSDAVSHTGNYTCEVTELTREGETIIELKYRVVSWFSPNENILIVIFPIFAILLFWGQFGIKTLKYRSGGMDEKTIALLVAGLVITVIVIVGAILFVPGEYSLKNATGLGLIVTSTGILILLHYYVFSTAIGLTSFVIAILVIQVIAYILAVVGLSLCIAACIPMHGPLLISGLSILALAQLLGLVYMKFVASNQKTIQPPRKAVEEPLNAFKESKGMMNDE

Results are given in words; binding and its absence hold for the method and conditions named. Some results given as binding are weak or reduced against the parent protein; the word gives no strength.

Assay [1] has as its target human Integrin Associated Protein (IAP) expressed on mouse leukemia cell line L1210 (human) (UniProt Q08722). The experiment in a line: flow cytometry, COS7 supernatant on L1210 cells expressing human IAP, anti-FLAG detection. (A flow cytometer gives signals particle by particle.)
Assay [2] shares this target. The assay can be described thus: flow cytometry, FIGS. 40a and 40b.
For assay [3] the target is unchanged. The experiment in a line: flow cytometry, purified protein on hIAP/L1210 cells against pCOS1/L1210 control cells, anti-FLAG detection.
Assay [4] shares this target. The experiment in a line: flow cytometry, FIG. 42.

B1: MABL2-scFv <LH-3> (scFv)
scFv: DVVMTQSPLSLPVSLGDQASISCRSSQSLVHSNGKTYLHWYLQKPGQSPKLLIYKVSNRFSGVPDRFSGSGSVTDFTLMISRVEAEDLGVYFCSQSTHVPYTFGGGTKLEIKSGGQVQLQQSGPELVKPGASVKMSCKASGYTFANHVIHWVKQKPGQGLEWIGYIYPYNDGTKYNEKFKDKATLTSDKSSTTAYMDLSSLASEDSAVYYCARGGYYTYDDWGQGTTLTVSSDYKDDDDK
In the case of B1, the binding entry in assay [1] and in assay [2] was “binds” throughout.

B2: MABL2-scFv <HL-6> (scFv)
scFv: QVQLQQSGPELVKPGASVKMSCKASGYTFANHVIHWVKQKPGQGLEWIGYIYPYNDGTKYNEKFKDKATLTSDKSSTTAYMDLSSLASEDSAVYYCARGGYYTYDDWGQGTTLTVSSGGGGGSDVVMTQSPLSLPVSLGDQASISCRSSQSLVHSNGKTYLHWYLQKPGQSPKLLIYKVSNRFSGVPDRFSGSGSVTDFTLMISRVEAEDLGVYFCSQSTHVPYTFGGGTKLEIKDYKDDDDK
With B2, the binding result in assay [1] and in assay [2] was “binds” in each case.

B3: MABL2-scFv <LH-7> (scFv)
scFv: DVVMTQSPLSLPVSLGDQASISCRSSQSLVHSNGKTYLHWYLQKPGQSPKLLIYKVSNRFSGVPDRFSGSGSVTDFTLMISRVEAEDLGVYFCSQSTHVPYTFGGGTKLEIKSGGGGGGQVQLQQSGPELVKPGASVKMSCKASGYTFANHVIHWVKQKPGQGLEWIGYIYPYNDGTKYNEKFKDKATLTSDKSSTTAYMDLSSLASEDSAVYYCARGGYYTYDDWGQGTTLTVSSDYKDDDDK
Take B3: the binding result in assay [1] and in assay [2] was “binds” each time.

B4: MABL2-scFv <HL-4> (scFv)
scFv: QVQLQQSGPELVKPGASVKMSCKASGYTFANHVIHWVKQKPGQGLEWIGYIYPYNDGTKYNEKFKDKATLTSDKSSTTAYMDLSSLASEDSAVYYCARGGYYTYDDWGQGTTLTVSSGGGSDVVMTQSPLSLPVSLGDQASISCRSSQSLVHSNGKTYLHWYLQKPGQSPKLLIYKVSNRFSGVPDRFSGSGSVTDFTLMISRVEAEDLGVYFCSQSTHVPYTFGGGTKLEIKDYKDDDDK
On to B4, for which the binding result in assay [1] and in assay [2] was “binds” each time.

B5: MABL2-scFv <LH-6> (scFv)
scFv: DVVMTQSPLSLPVSLGDQASISCRSSQSLVHSNGKTYLHWYLQKPGQSPKLLIYKVSNRFSGVPDRFSGSGSVTDFTLMISRVEAEDLGVYFCSQSTHVPYTFGGGTKLEIKSGGGGGQVQLQQSGPELVKPGASVKMSCKASGYTFANHVIHWVKQKPGQGLEWIGYIYPYNDGTKYNEKFKDKATLTSDKSSTTAYMDLSSLASEDSAVYYCARGGYYTYDDWGQGTTLTVSSDYKDDDDK
On to B5, for which the binding entry in assay [1] and in assay [2] was “binds” throughout.

B6: MABL2-scFv <LH-4> (scFv)
scFv: DVVMTQSPLSLPVSLGDQASISCRSSQSLVHSNGKTYLHWYLQKPGQSPKLLIYKVSNRFSGVPDRFSGSGSVTDFTLMISRVEAEDLGVYFCSQSTHVPYTFGGGTKLEIKSGGGQVQLQQSGPELVKPGASVKMSCKASGYTFANHVIHWVKQKPGQGLEWIGYIYPYNDGTKYNEKFKDKATLTSDKSSTTAYMDLSSLASEDSAVYYCARGGYYTYDDWGQGTTLTVSSDYKDDDDK
As to B6, the binding result in assay [1] and in assay [2] was “binds” each time.

B7: MABL2-scFv <HL-3> (scFv)
scFv: QVQLQQSGPELVKPGASVKMSCKASGYTFANHVIHWVKQKPGQGLEWIGYIYPYNDGTKYNEKFKDKATLTSDKSSTTAYMDLSSLASEDSAVYYCARGGYYTYDDWGQGTTLTVSSGGSDVVMTQSPLSLPVSLGDQASISCRSSQSLVHSNGKTYLHWYLQKPGQSPKLLIYKVSNRFSGVPDRFSGSGSVTDFTLMISRVEAEDLGVYFCSQSTHVPYTFGGGTKLEIKDYKDDDDK
Consider B7, for which the binding result in assay [1] and in assay [2] was “binds” each time.

B8: MABL2-scFv <LH-5> (scFv)
scFv: DVVMTQSPLSLPVSLGDQASISCRSSQSLVHSNGKTYLHWYLQKPGQSPKLLIYKVSNRFSGVPDRFSGSGSVTDFTLMISRVEAEDLGVYFCSQSTHVPYTFGGGTKLEIKSGGGGQVQLQQSGPELVKPGASVKMSCKASGYTFANHVIHWVKQKPGQGLEWIGYIYPYNDGTKYNEKFKDKATLTSDKSSTTAYMDLSSLASEDSAVYYCARGGYYTYDDWGQGTTLTVSSDYKDDDDK
B8: the binding entry in assay [1] and in assay [2] was “binds” in each case.

B9: MABL2-scFv <HL-7> (scFv)
scFv: QVQLQQSGPELVKPGASVKMSCKASGYTFANHVIHWVKQKPGQGLEWIGYIYPYNDGTKYNEKFKDKATLTSDKSSTTAYMDLSSLASEDSAVYYCARGGYYTYDDWGQGTTLTVSSGGGGGGSDVVMTQSPLSLPVSLGDQASISCRSSQSLVHSNGKTYLHWYLQKPGQSPKLLIYKVSNRFSGVPDRFSGSGSVTDFTLMISRVEAEDLGVYFCSQSTHVPYTFGGGTKLEIKDYKDDDDK
For B9, the binding result in assay [1] and in assay [2] was “binds” throughout.

B10: MABL2-scFv <HL-5> (COS7 culture supernatant) (scFv)
scFv: QVQLQQSGPELVKPGASVKMSCKASGYTFANHVIHWVKQKPGQGLEWIGYIYPYNDGTKYNEKFKDKATLTSDKSSTTAYMDLSSLASEDSAVYYCARGGYYTYDDWGQGTTLTVSSGGGGSDVVMTQSPLSLPVSLGDQASISCRSSQSLVHSNGKTYLHWYLQKPGQSPKLLIYKVSNRFSGVPDRFSGSGSVTDFTLMISRVEAEDLGVYFCSQSTHVPYTFGGGTKLEIKDYKDDDDK
As for B10, the binding entry in assay [1] and in assay [2] was “binds” each time.

B11: purified dimer of MABL2-scFv <HL-5> (scFv)
scFv 1: QVQLQQSGPELVKPGASVKMSCKASGYTFANHVIHWVKQKPGQGLEWIGYIYPYNDGTKYNEKFKDKATLTSDKSSTTAYMDLSSLASEDSAVYYCARGGYYTYDDWGQGTTLTVSSGGGGSDVVMTQSPLSLPVSLGDQASISCRSSQSLVHSNGKTYLHWYLQKPGQSPKLLIYKVSNRFSGVPDRFSGSGSVTDFTLMISRVEAEDLGVYFCSQSTHVPYTFGGGTKLEIKDYKDDDDK
scFv 2: QVQLQQSGPELVKPGASVKMSCKASGYTFANHVIHWVKQKPGQGLEWIGYIYPYNDGTKYNEKFKDKATLTSDKSSTTAYMDLSSLASEDSAVYYCARGGYYTYDDWGQGTTLTVSSGGGGSDVVMTQSPLSLPVSLGDQASISCRSSQSLVHSNGKTYLHWYLQKPGQSPKLLIYKVSNRFSGVPDRFSGSGSVTDFTLMISRVEAEDLGVYFCSQSTHVPYTFGGGTKLEIKDYKDDDDK
modifications: The two identical scFv chains form a non-covalent homodimer.
Consider B11, for which the binding result in assay [3] and in assay [4] was “binds” in each case.
